Data published in PMC12670160, “A drug-repurposing screen of FDA- and EMA-approved drugs identifies two NF-κB inhibitors active against eumycetoma” (Journal of Antimicrobial Chemotherapy, 2025).
Structures can show the parent of a compound that is named as a salt. About 130 (2.5%) of roughly 5,300 compounds showed an effect of 50% or more. The list shows a part of the results.

system: M. mycetomatis strain mm55; details: primary screen, metabolic activity vs growth control; 96 h, 2 µM; inhibitor

Row | Compound | % viability
1 | O=C(OCC(O)CO)c1ccccc1Nc1ccnc2c(C(F)(F)F)cccc12 (centres unmarked) [ONC0004759, floctafenine] | 102.3%
2 | Cc1cccc(NC(=O)CN2CCC(c3ccccn3)CC2)c1 [ONC0000843, a412997] | 54.65%
3 | CO[C@H]1C[C@@H]2CC[C@@H](C)[C@@](O)(O2)C(=O)C(=O)N2CCCC[C@H]2C(=O)O[C@H]([C@H](C)C[C@@H]2CC[C@H](n3cnnn3)[C@H](OC)C2)CC(=O)[C@H](C)/C=C(\C)[C@@H](O)[C@@H](OC)C(=O)[C@H](C)C[C@H](C)/C=C/C=C/C=C/1C [ONC0000353, zotarolimus] | 64.47%
4 | Cc1ccc(NC(=O)c2ccc(CN3CCC(N(C)C)C3)c(C(F)(F)F)c2)cc1Nc1ncc(-c2cncnc2)cn1 (centres unmarked) [ONC0004625, bafetinib inno406] | 85.25%
5 | CCCC(=O)Nc1cccc(NC(=O)c2ccccc2Br)c1 [ONC0001474, ml161] | 73.73%
6 | O=c1cccc2n1C[C@@H]1CNC[C@H]2C1 [ONC0003003, cytisine] | 81.48%
7 | CN(C(=O)Cc1ccccc1)[C@H](CN1CCCC1)c1ccccc1 [ONC0002640, nmppp] | 98.85%
8 | Cc1ccc(C(C)C)c(O)c1 [ONC0003708, thymol] | 115.4%
9 | NCC1(CC(=O)O)CCCCC1 [ONC0004013, gabapentin] | 72.23%
10 | CCOC(=O)N1CSCC1C(=O)O (centres unmarked) [ONC0002766, 3ethyl thiazolidine34dicarboxylate] | 97.19%
11 | O=C1CC2(CCCC2)CC(=O)N1CCCCNCC1COc2ccccc2O1 (centres unmarked) [ONC0001554, mdl72832] | 112.9%
12 | N=C(N)N=Nc1ccc(NNC(=N)S)cc1 [ONC0002980, ambazone] | 75.31%
13 | Fc1ccc(C(OCCN2CCN(C/C=C/c3ccccc3)CC2)c2ccc(F)cc2)cc1 [ONC0001678, gbr13069] | 64.41%
14 | CC[C@H](C)C(=O)O[C@H]1C[C@H](O)C=C2C=C[C@H](C)[C@H](CC[C@@H](O)C[C@@H](O)CC(=O)O)[C@H]21 [ONC0004047, pravastatin sodium] | 89.55%
15 | Cc1cccn2c(=O)c(-c3nnn[nH]3)cnc12 [ONC0001181, pemirolast potassium] | 82.69%
16 | CN1CC(=O)N=C1NC(=O)Nc1cccc(Cl)c1 [ONC0001340, fenobam] | 110.6%
17 | CCOCCn1c(N2CCCN(C)CC2)nc2ccccc21 [ONC0002778, emedastine difumarate] | 106%
18 | Clc1cccc(-n2nnnc2NCc2ccccc2Oc2ccccn2)c1Cl [ONC0001456, a839977] | 77.49%
19 | CC1(C)CC(=O)C(C2C3=C(CC(C)(C)CC3=O)Oc3ccccc32)C(=O)C1 (centres unmarked) [ONC0001684, l152804] | 75.84%
20 | O=S1(=O)CCN(CN2CCS(=O)(=O)NC2)CN1 [ONC0002116, taurolidine] | 83.67%
21 | Nc1nc(Nc2ccccc2)nc2c1ncn2[C@@H]1O[C@H](CO)[C@@H](O)[C@H]1O [ONC0001740, cv1808] | 67.53%

3 entries drawn at random from the list so far:
Row | Compound | % viability
21 | Nc1nc(Nc2ccccc2)nc2c1ncn2[C@@H]1O[C@H](CO)[C@@H](O)[C@H]1O [ONC0001740, cv1808] | 67.53%
9 | NCC1(CC(=O)O)CCCCC1 [ONC0004013, gabapentin] | 72.23%
7 | CN(C(=O)Cc1ccccc1)[C@H](CN1CCCC1)c1ccccc1 [ONC0002640, nmppp] | 98.85%

Following part.

Row | Compound | % viability
22 | N=C(N)Nc1ccc(Cl)cc1 [ONC0000368, 4chlorophenylguanidine] | 70.79%
23 | Cc1nc(C)c(C)nc1C [ONC0003449, tetramethylpyrazine] | 70.83%
24 | Cl.O=C(c1ccc(-c2ccc(Cl)cc2)o1)N(Cc1ccccn1)c1ccc(N2CCNCC2)cc1 [ONC0002178, mk2in1 hydrochloride] | 65.24%
25 | O=C1c2cc(Cl)ccc2OC2CCON12 (centres unmarked) [ONC0003843, seclazone] | 64.53%
26 | CCNC(=O)CCC(N)C(=O)O (centres unmarked) [ONC0003472, ltheanine] | 73.98%
27 | Cc1ccc(S(=O)(=O)/C=C/C#N)cc1 [bay117082] | 112.1%
28 | Nc1ccccc1NC(=O)c1ccc(CNc2nccc(-c3cccnc3)n2)cc1 [ONC0002464, mocetinostat] | 89.27%
29 | Cn1nc(-c2ccc(C(F)(F)F)cc2)nc2c(=O)n(C)c(=O)nc1-2 [ONC0001770, walrycin b] | 125%
30 | O=[N+]([O-])c1ccc(Cl)c([N+](=O)[O-])c1 [ONC0005611, 24dinitrochlorobenzene] | 80.45%
31 | Cc1cccc(C)c1NC(=O)C[N+](C)(C)C [ONC0000104, qx222] | 105.9%
32 | c1ccc2c(c1)OC[C@H](CNCCCOc1ccc3c(c1)OCO3)O2 [ONC0002135, osemozotan] | 69.13%
33 | O=C(OCCN1CCCCC1)c1c[nH]c2ccccc12 [ONC0002524, sb203186] | 63.19%
34 | O=C(CCCN1CCC2(CC1)C(=O)NCN2c1ccccc1)c1ccc(F)cc1 [ONC0000014, spiperone] | 87.63%
35 | CC(C)n1c(=O)n(C(=O)NC2CC3CCC(C2)N3C)c2ccccc21 (centres unmarked) [ONC0004172, bimu8 hydrate] | 87.83%
36 | Nc1ncc(Cc2ccc(Br)cc2)s1 [ONC0001370, ns19504] | 73.87%
37 | Nc1ncnc2c1ncn2[C@@H]1O[C@H](CO)C[C@H]1O [ONC0003004, cordycepin] | 108%
38 | O=C(O)c1ccc(NC2OC(CO)C(O)C(O)C2O)cc1 (centres unmarked) [ONC0003638, n4carboxyphenylalphadmannopyranosylamine] | 73.46%
39 | CC/C=C(\C(=O)N[C@@H]1C(=O)N2C(C(=O)OCOC(=O)C(C)(C)C)=C(COC(N)=O)CS[C@H]12)c1csc(N)n1 [ONC0003350, cefcapene pivoxil hydrochloride monohydrate] | 73.97%
40 | COc1ccc2cc3[n+](cc2c1OC)CCc1cc2c(cc1-3)OCO2 [ONC0003235, berberine chloride] | 80.03%
41 | COc1cc2c(cc1Cc1cccc(Cl)c1F)c(=O)c(C(=O)O)cn2[C@H](CO)C(C)C [ONC0004910, elvitegravir gs9137] | 133.1%
42 | Nc1ncnc2c1ncn2[C@H]1CC[C@@H](CO)O1 [ONC0003689, 23dideoxyadenosine] | 49.81%

Row | Compound | % viability
43 | CC(C)Cc1ccc([C@@H](C)C(=O)NS(C)(=O)=O)cc1 [ONC0001293, reparixin] | 54.34%
44 | COc1cc(CN2CCN(c3ccc(F)cc3)CC2)cc(OC)c1OC [ONC0003564, 14fluorophenyl4345trimethoxybenzylpiperazine] | 82.72%
45 | COc1cc(C2Oc3ccc(C4Oc5cc(O)cc(O)c5C(=O)C4O)cc3OC2CO)ccc1O (centres unmarked) [ONC0005196, silymarin silybin b] | 144.4%
46 | CC(=O)NC[C@H]1CN(c2ccc(N3CCOCC3)c(F)c2)C(=O)O1 [ONC0002450, linezolid] | 98.01%
47 | CCCCC1(C2CCCC2)Cc2cc(OCCCC(=O)O)c(Cl)c(Cl)c2C1=O (centres unmarked) [ONC0002519, dcpib] | 87.12%
48 | OC[C@H]1O[C@@H](O[C@@H]2[C@H](O)[C@@H](O)[C@H](O[C@H]3[C@H](O)[C@@H](O)C(O)O[C@@H]3CO)O[C@@H]2CO)[C@H](O)[C@@H](O)[C@H]1O (some centres unmarked) [ONC0004130, 4galactosyllactose] | 126.3%
49 | Cc1nccn1CC1CCc2c(c3ccccc3n2C)C1=O (centres unmarked) [ONC0000588, ondansetron hydrochloride] | 115.3%
50 | CCCCCCOc1ccccc1C(N)=O [ONC0002422, exalamide] | 94.69%
51 | CC[C@H](CO)Nc1nc(Nc2cccc(-c3ccccn3)c2)c2ncn(C(C)C)c2n1 [ONC0001534, drf053r] | 59.61%
52 | CC1(C)CC(O)CC(C)(C)N1O [ONC0003643, 4hydroxy2266tetramethylpiperidinooxy98free radical] | 64.34%
53 | Cc1sc2c(c1C)C(c1ccc(Cl)cc1)=N[C@@H](CC(N)=O)c1nnc(C)n1-2 [ONC0001837, cpi203] | 75.28%
54 | CCN(CC)CCNC(=O)c1ccc(N)cc1 [ONC0000458, procainamide hydrochloride] | 68.3%
55 | NC[C@H](O)c1ccc(O)c(O)c1 [ONC0000378, norepinephrine tartrate] | 51.27%
56 | O[C@H]1[C@H](O)[C@@H](O)CN2CC[C@H](O)[C@H]12 [ONC0001497, castanospermine] | 95.87%
57 | CCc1cnc(N2CCC(c3nc(COc4ccc(-n5cnnn5)cc4)cs3)CC2)nc1 [ONC0002453, mbx2982] | 124.9%
58 | c1cc(Nc2cc(C3CC3)[nH]n2)nc(Nc2ccc3[nH]cnc3c2)n1 [ONC0003009, apy29] | 67.52%
59 | Cn1cc(-c2cnc3ccc4ccc(CS(=O)(=O)NCc5ccccn5)cc4c(=O)c3c2)cn1 [ONC0001114, mk8033] | 67.34%
60 | Cc1c(-c2ccc(O)cc2)n(Cc2ccc(OCCN3CCCCCC3)cc2)c2ccc(O)cc12 [ONC0004785, bazedoxifene hcl] | 83.71%
61 | C=C[C@]1(C)C[C@@H](OC(=O)CSC(C)(C)CNC(=O)[C@H](N)C(C)C)[C@]2(C)[C@H](C)CC[C@]3(CCC(=O)[C@H]32)[C@@H](C)[C@@H]1O [ONC0004321, valnemulin hcl] | 125.1%
62 | CCOC1O[C@H]([C@@H](COCc2ccccc2)OCc2ccccc2)[C@H](OCc2ccccc2)[C@H]1O (some centres unmarked) [ONC0002940, tribenoside] | 57.62%
